Out of some 360,000 compounds screened, about 9,100 (2.5%) were called active. The shares of active, inactive and inconclusive entries below differ from those in the screen. Rule as the data show it: active = max response below about -50%; inconclusive = no clear call, values can overlap the other calls; inactive = above that.
These compounds were tested against D(3) dopamine receptor (Homo sapiens) (UniProt P35462) (assay: qHTS of D3 Dopamine Receptor Antagonist: qHTS). Settings: D3R cells, DiscoveRx beta-arrestin luminescence, antagonist mode; hits give low values.
Procedure, shortened: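 Cells plated overnight at 1500 cells/well, then exposed to library compounds with dopamine controls for 90 minutes at 37 degrees C. DiscoveRx reagent added for 30–60 minutes at room temperature; luminescence read, quantitative HTS format.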
% is scaled to controls: 0 for no effect and ±100 for the full control effect.

Protein sequences, listed by entry. Tags and fused reporters are not part of them.
UniProt P35462, whole entry, looked up: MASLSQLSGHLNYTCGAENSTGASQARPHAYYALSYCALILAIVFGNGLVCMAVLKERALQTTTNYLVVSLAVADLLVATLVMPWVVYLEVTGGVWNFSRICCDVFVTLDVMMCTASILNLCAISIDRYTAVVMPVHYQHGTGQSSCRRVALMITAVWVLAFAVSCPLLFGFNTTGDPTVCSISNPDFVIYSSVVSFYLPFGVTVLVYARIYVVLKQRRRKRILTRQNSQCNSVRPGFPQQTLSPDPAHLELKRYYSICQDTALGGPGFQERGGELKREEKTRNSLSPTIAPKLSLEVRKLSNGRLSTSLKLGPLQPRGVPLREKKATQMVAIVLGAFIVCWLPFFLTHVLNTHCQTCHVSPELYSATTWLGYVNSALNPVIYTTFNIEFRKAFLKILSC

Structure (SMILES) | max response, negative = inhibition
CCOC(=O)CCSc1nc2c(c(C(F)(F)F)c1C#N)CCC2 | inconclusive: -30.9%
CN1CCN(Cc2cccc(Oc3ccc(Cl)cc3)c2)CC1 | active: -51.8%
Cc1c(CC(=O)NCCCCCC(=O)O)c(=O)oc2cc3c(cc12)CCC(C)(C)O3 | inactive: 0.549%
COc1ccc(NC(=O)c2ccc3[nH]c(C)c(C)c3c2)c(OC)c1 | active: -52.8%
CN(C)C(CNC(=O)/C=C/c1cccc(Cl)c1)c1ccccc1 (stereo not drawn) | inconclusive: -30.8%
O=C(Nc1ccc(NC(=O)c2cc([N+](=O)[O-])ccc2N2CCOCC2)cc1)c1cccs1 | inconclusive: -36.3%
CC1=C(C(=O)N2CCOCC2)CC(CC(=O)NCCc2ccccn2)C(=O)N1Cc1ccc(C(C)(C)C)cc1 (stereo not drawn) | inactive: -8.15%
Cc1ccc(S(=O)(=O)N2C[C@H]3C(=O)C[C@@H](c4ccccc4F)N(S(=O)(=O)c4ccc(C)cc4)[C@H]3C[C@H]2c2cccc3ccccc23)cc1 | inconclusive: -33.1%
Cc1cc2cc(C#N)c(N3CCN(S(C)(=O)=O)CC3)nc2cc1C | inactive: -18.6%
Cc1ccc(Nc2nc(NCc3cccs3)nc3ccsc23)c(C)c1 | inconclusive: -46.5%
O=C(Cn1nc2ccccc2n1)N/N=C/c1cc([N+](=O)[O-])ccc1O | active: -65.3%
Cc1ccc2c(c1)N(CC(=O)NCCCN1CCOCC1)C(=O)C(C(C)C)O2 (stereo not drawn) | inconclusive: -30.1%
COC(=O)CCCC1=CC2=CC(=O)C(C)(OC(=O)c3cccs3)C(=O)C2=CN1CCN1CCOCC1 (stereo not drawn) | inconclusive: -46.6%
Cc1c(CCOC(=O)C2C3CC4CC(C3)CC2C4)sc[n+]1CC(=O)c1ccc(Br)cc1 (stereo not drawn) | inconclusive: -42.1%
COc1ccc(NC(=O)Cn2cc(S(=O)(=O)Cc3ccccc3)c3ccccc32)c(OC)c1 | inactive: 37.9%
CCCOc1ccc(CSc2ncn[nH]2)cc1 | active: -81.8%
O=C(c1cc2cc(Cl)ccc2[nH]1)N1CCN(Cc2ccc3c(c2)OCO3)CC1 | inconclusive: -40.3%
CC(NS(C)(=O)=O)C(c1cccs1)N1CCN(c2ccc(F)cc2)CC1 (stereo not drawn) | inconclusive: -39.5%
O=C(Cc1ccc(Cl)cc1)Nc1ccc(Cl)cn1 | inconclusive: -31.1%
Cc1ccccc1NC(=S)C1=C(O)c2sccc2N(C)S1(=O)=O | active: -87.9%
Cc1ccc(S(=O)(=O)NC(C)C(c2cccs2)N2CCN(c3ccccc3)CC2)cc1 (stereo not drawn) | inconclusive: -36.1%

Structure (SMILES) | max response, negative = inhibition
CCN(c1ccccc1)S(=O)(=O)c1ccc(Cl)c(C(=O)Nc2ccncc2)c1 | inactive: 12.5%
COc1ccc(C(=O)C2CCCN(Cc3cc(C)c(O)c(C)c3)C2)c(OC)c1 (stereo not drawn) | inconclusive: -32.6%
Cc1ccccc1NC(=S)N(CCCN1CCC(C)CC1)Cc1ccco1 | inconclusive: -30.1%
CCOc1ccc(-n2c(-c3ccc(Br)cc3)c[n+]3c2CCCCC3)cc1 | inactive: 4.8%
COC(=O)c1c(N)sc(C(=O)N2CCOCC2)c1C | inactive: 7.68%
O=C1Nc2ccccc2-n2nnnc2C1N1CCN(CCN2CCOCC2)CC1 (stereo not drawn) | inconclusive: -48.6%
CC(C)(C)n1nnnc1C(c1cccs1)N(Cc1cccnc1)Cc1ccco1 (stereo not drawn) | inconclusive: -35.9%
Cc1ccc(-c2csc(N3CCN(c4cc5c(cc4Cl)nc(C)n5CCN4CCCCC4)CC3)n2)cc1 | inconclusive: -34%
Cc1ccc(C(=O)C(C)OC(=O)c2cc3cc([N+](=O)[O-])ccc3oc2=O)cc1 (stereo not drawn) | active: -98.5%
Cc1ccc(-c2c[n+](CC(=O)Nc3ccccc3C)c3n2CCC3)cc1 | active: -62.9%
Cc1cccc(/C=N/NC(=O)c2cccc(Cl)c2)n1 | inconclusive: -30.7%
c1ccc(-c2nn3c(Cn4nnc5ccccc54)nnc3s2)cc1 | inactive: 13.9%
Cc1cc(NC(=O)CS(=O)(=O)c2cn(Cc3cccc(F)c3)c3ccccc23)no1 | inactive: -19.4%
COc1ccc([C@@H]2[C@@H]3C(=O)N(C(C)(C)C)C(=O)[C@@H]3[C@]3(CC(C)C)C(=O)N(c4ccc(C(F)(F)F)cc4)C(=O)N23)cc1 | inactive: 0%
CCOC(=O)C1C(=O)C=C(Nc2ccccc2F)CC1c1ccccc1 (stereo not drawn) | inconclusive: -44.9%
S=c1[nH]nc(-c2ccncc2)n1/N=C/c1cccc(Cl)c1 | inconclusive: -31.4%
CCCCN1C(=O)C(CC(=O)NCCCCc2ccccc2)CC(C(=O)N2CCCCCC2)=C1C (stereo not drawn) | active: -51.7%
COc1ccc(OCCNc2cc(N3CCOCC3)ccc2[N+](=O)[O-])cc1 | inconclusive: -47.4%
CCC(=O)N1CCc2cc(S(=O)(=O)N3CCN(C(=O)c4ccco4)CC3)ccc21 | inconclusive: -36.5%
COc1ccccc1C(O)Cc1nc2ccccc2n1C (stereo not drawn) | inconclusive: -40.7%
COC(=O)C(=Cc1ccccc1[N+](=O)[O-])C(=O)OC | active: -57.8%

4 entries from above, as a markdown table:

| Structure (SMILES) | max response, negative = inhibition |
| --- | --- |
| CCOc1ccc(-n2c(-c3ccc(Br)cc3)c[n+]3c2CCCCC3)cc1 | inactive: 4.8% |
| O=C1Nc2ccccc2-n2nnnc2C1N1CCN(CCN2CCOCC2)CC1 (stereo not drawn) | inconclusive: -48.6% |
| CC(C)(C)n1nnnc1C(c1cccs1)N(Cc1cccnc1)Cc1ccco1 (stereo not drawn) | inconclusive: -35.9% |
| c1ccc(-c2nn3c(Cn4nnc5ccccc54)nnc3s2)cc1 | inactive: 13.9% |

Quoted from the listing for reference:
Structure (SMILES) | max response, negative = inhibition
COC(=O)CCCC1=CC2=CC(=O)C(C)(OC(=O)c3cccs3)C(=O)C2=CN1CCN1CCOCC1 (stereo not drawn) | inconclusive: -46.6%
Cc1c(CCOC(=O)C2C3CC4CC(C3)CC2C4)sc[n+]1CC(=O)c1ccc(Br)cc1 (stereo not drawn) | inconclusive: -42.1%

The list continues:

Structure (SMILES) | max response, negative = inhibition
O=C1c2c(-c3ccc(Br)cc3)noc2CCN1Cc1cn(C2CCCC2)nn1 | inactive: 8.97%
O=C(NCCc1ccccn1)c1cccc(S(=O)(=O)N2CCc3ccccc32)c1 | inactive: -3.78%
CC1=CC(C)(C)N=C(Nc2ccc(C)cc2)S1 | active: -74%
Cc1ccc(C(C(=O)NC(C)(C)C)N(C(=O)c2csnn2)c2ccccc2F)o1 (stereo not drawn) | inconclusive: -32.2%
Cc1sc2nc3c(SC(C)C(=O)O)cc(C(=O)c4ccccc4O)cn3c(=O)c2c1C (stereo not drawn) | inconclusive: -32.1%
Cc1ccc(C)c(C2=NNC(=NCc3ccccc3)SC2)c1 | inconclusive: -30.2%
CC1CCCC(C)N1C(=O)COC(=O)c1ccc2ccccc2n1 (stereo not drawn) | inconclusive: -45.8%
OCCN1CCN(C2Cc3cc(Cl)ccc3Sc3ccc(Cl)cc32)CC1 (stereo not drawn) (tested in a mixture with another compound) | active: -71.9%
CCN(CC)S(=O)(=O)c1cccc(NC(=O)CN2C(=O)NC3(CCC(C)CC3)C2=O)c1 (stereo not drawn) | inactive: 19%
COc1ccc2c(c1)c(CC(=O)OCC(=O)O)c(C)n2C(=O)c1ccc(Cl)cc1 | active: -54.2%
CCCSc1nc(=O)n2cc(C)ccc2n1 | inconclusive: -32.5%
COc1ccc(C(=O)Nc2ccc(S(=O)(=O)Nc3nccnc3OC)cc2)cc1 | inconclusive: -38.9%
CC1CCN(CCCCOc2ccc(Br)cc2)CC1 | active: -51.8%
O=C(N/N=C/c1c(Nc2cccc(C(F)(F)F)c2)nc2ccccn2c1=O)c1ccccc1[N+](=O)[O-] | inactive: 6.18%
CCOC(=O)C1=CCC(c2cccs2)N(S(=O)(=O)c2ccc(C)cc2)C1 (stereo not drawn) | inconclusive: -32.6%
Cn1c(SCC(=O)N2CCCc3ccccc32)nnc1-c1c[nH]c2ccccc12 | inconclusive: -47.2%
C#CCOCCOCCOCCNc1nc(N2CCN(C(=O)C([C@@H](C)O)n3cc([C@@H](N)CCCCN)nn3)CC2)nc(N2CCN(C(=O)[C@H](CCCCN)n3cc([C@@H](N)CC(N)=O)nn3)CC2)n1 (stereo partly drawn) | inconclusive: -42.9%
CCn1cc([N+](=O)[O-])c(C(=O)N2N=C(c3ccc4ccccc4c3)CC2c2ccccc2O)n1 (stereo not drawn) | inconclusive: -46.7%
COc1ccc(-c2noc(C)c2-c2ccc3ccccc3n2)c(O)c1 | inconclusive: -46.1%
CC1(C)Cc2c(sc(NC(=O)c3ccc(C(=O)c4ccccc4)cc3)c2C#N)C(C)(C)N1 | active: -57.1%
Cc1c(C(=O)O/N=C(\N)c2ccccn2)cccc1[N+](=O)[O-] | inactive: -15.9%

Structure (SMILES) | max response, negative = inhibition
C=CCc1ccc(OCC(O)CN2CCN(Cc3ccc(Cl)cc3)CC2)c(OC)c1 (stereo not drawn) | active: -73.4%
COc1ccc(S(=O)(=O)N(C)C)cc1NC(C)C(=O)Nc1cccc(C#N)c1 (stereo not drawn) | inactive: 2.99%
Cc1ccc(CNC(=O)c2ccccc2N)cc1 | inconclusive: -37.5%
Cc1ccc2c(c1C)NC(C)CC2C (stereo not drawn) | inconclusive: -42.8%
Cc1ccc(C(=O)CNc2ccc(Br)cc2)cc1 | inconclusive: -38.9%
O=C(COC(=O)C1CCN(S(=O)(=O)c2cccs2)CC1)c1ccccc1 | inconclusive: -34.8%
O=C(OCn1ncc(Cl)c(Cl)c1=O)c1cccc(C(F)(F)F)c1 | active: -70.6%
Cc1ccc(O)c(NC(=S)NC(=O)c2ccccc2Cl)c1 | inconclusive: -46.2%
O=C(CCc1ccc(S(=O)(=O)N2CCOCC2)cc1)OCC(=O)c1ccc(Br)cc1 | inconclusive: -34.6%
CC1(C)C2(C#N)C(N)=NC3(OCCO3)C12C#N (stereo not drawn) | inconclusive: -47.1%
Cc1ccc([C@H]2C[C@H](O)[C@@H](n3cc(COC(=O)c4ccccc4)nn3)CN2C(=O)C2CCCCC2)cc1 | inconclusive: -33.5%
Cc1cc(=O)[nH]c(-n2[nH]c(C)cc2=O)n1 | inconclusive: -44.1%
COc1ccc(OCC#CCn2ccnc2)cc1 | inconclusive: -48.8%
CCn1cc(CN2CCC(Oc3ccc(C(=O)N4CCCCC4)cc3)CC2)cn1 | inconclusive: -40.2%
O=C1Cc2ccccc2C(c2ccc(Br)cc2)N1 (stereo not drawn) | inactive: 8.5%
CC(C)C1C(=O)N(Cc2cn(CC3CCCCC3)nn2)CCS(=O)(=O)N1Cc1ccc(-c2ccc(F)nc2)cc1 (stereo not drawn) | inactive: -4.34%
Cc1ccc(Cn2ccc(=O)c(OCc3c(Cl)cccc3Cl)c2C)cc1 | inactive: 46.7%
c1cnc2c(C3NCCc4c3[nH]c3ccccc43)cccc2c1 (stereo not drawn) | active: -87.3%
CC(C)CN(C(=O)Cn1nnc(-c2ccc(F)cc2)n1)C1CCS(=O)(=O)C1 (stereo not drawn) | inactive: 14.6%
CSCc1c(C(=O)NC2CCCc3ccccc32)oc2ccccc12 (stereo not drawn) | inconclusive: -32.1%

— PubChem BioAssay AID652054 (National Center for Advancing Translational Sciences (NCATS), 2013)
